Reference: patent US10165778B2, “Method for controlling pests in soybean” (BASF SE, priority 2014, dated 2019)
Some of these results come from one statement about several compounds together.

Tests used:
Format in all cases: in vivo
[1] = system: Green Soldier Stink Bug (Nezara viridula); experiment: B.1 soybean pod spray test, 3rd instar nymphs; settings: after 5 days
Description: B.1 Green Soldier Stink Bug (Nezara viridula)
The active compound is dissolved at the desired concentration in a mixture of 1:1 (vol:vol) distilled water:acetone. Surfactant (Kinetic HV) is added at a rate of 0.01% (vol/vol). The test solution is prepared at the day of use.
Soybean pods were placed in microwavable plastic cups lined with moist filter paper and inoculated with ten 3rd instar N. viridula. Using a hand atomizer, approximately 2 ml solution is sprayed into each cup. Treated cups were kept at about 28-29° C. and relative humidity of about 50-60%. Percent mortality was recorded after 5 days.

[2] = system: Orchid Thrips (Dichromothrips corbetti); experiment: B.2 floral-immersion test on orchid petals, adult thrips; settings: 500 ppm, 72 hours after treatment
Description: B.2 Orchid Thrips (Dichromothrips corbetti)
Dichromothrips corbetti adults used for bioassay were obtained from a colony maintained continuously under laboratory conditions. For testing purposes, the test compound is diluted in a 1:1 mixture of acetone:water (vol:vol), plus Kinetic HV at a rate of 0.01% v/v.
Thrips potency of each compound was evaluated by using a floral-immersion technique. All petals of individual, intact orchid flowers were dipped into treatment solution and allowed to dry in Petri dishes. Treated petals were placed into individual re-sealable plastic along with about 20 adult thrips. All test arenas were held under continuous light and a temperature of about 28° C. for duration of the assay. After 3 days, the numbers of live thrips were counted on each petal. The percent mortality was recorded 72 hours after treatment.

[3] = system: Green Soldier Stink Bug (Nezara viridula); experiment: B.7 soil drench on lima bean plants, 2nd instar nymphs; settings: 300 g ai/ha, infested 3 days after treatment, read four days after infestation
Description: B.7 Green Soldier Stink Bug (Nezara viridula)
Lima Bean (Phaseolus lunatus, ‘Henderson Bush,’ Lot #—VR06650) plants were transplanted at the two true-leaf stage into 25.8 cm^2 pots filled with sifted (No. 10 sieve) North Carolina loamy sand soil. Pots were held in the greenhouse and watered daily until treatment. Three days after transplant, the compounds were dissolved in acetone and then diluted with water for a final concentration of 50% acetone. Treatments were applied as a drench in 1 ml solution per plant. Plants were held in an environmental chamber (25±2° C., 24 L) and watered as needed for the duration of the test.
Three days after treatment, plants were infested with five 2nd instar nymphs. Plants were covered with organza fabric bags to prevent escape. Four days after infestation, the number of live nymphs on each plant was recorded, and means were calculated for each treatment. The percent control was calculated as the percent mortality relative to the solvent blank.

[4] = system: Rice Leaf Bug (Trigonotylus caelestialium); experiment: B.5 sprayed wheat seedling test, 2nd and 3rd stage nymphs; settings: 100 ppm, spray, after 5 days
Description: B.5 Rice Leaf Bug (Trigonotylus caelestialium)
The active compound is dissolved at the desired concentration in a mixture of 1:1 (vol:vol) distilled water:acetone.
Small wheat seedlings in glass tubes were sprayed with 200 microliter/tube by air brush. After drying, ten 2nd and 3rd nymph stage individuals were released in the tube and the tube closed with a screened lid. Treated cups were kept at about 20° C. Percent mortality was recorded after 5 days.

Measured: mortality in comparison with untreated controls

CC1C(=O)OC2C(O)C34C5CC(C(C)(C)C)C36C(OC(=O)C6O)OC4(C(=O)O5)C12O (stereo not shown) [Ginkgolide B]
at least 75%: [1]; 500 ppm | [2]

Ginkgolide C
at least 75%: [2]

C[C@@H]1C(=O)O[C@H]2C[C@@]34[C@H]5C[C@@H](C(C)(C)C)[C@]36[C@@H](OC(=O)[C@@H]6O)O[C@@]4(C(=O)O5)[C@]21O [Ginkgolide A]
at least 75%: [3] | [1]; 10 ppm | [1]; 100 ppm | [1]; 300 ppm | [1]; 500 ppm | [2] | [4]
